Assay in all cases: co-IP; lysates of MCF7-KRT13 and HCC1954-shKRT13 cells; immunoprecipitation with anti-KRT13, anti-PG or anti-DSP antibody, Protein A/G PLUS-Agarose, 4 °C overnight, rinsed four times with cell lysis buffer; western blot
Background: In western blotting, separated proteins are transferred to a membrane and probed.

Amino acid sequences for entries named in this document (tags omitted).
UniProt P15924: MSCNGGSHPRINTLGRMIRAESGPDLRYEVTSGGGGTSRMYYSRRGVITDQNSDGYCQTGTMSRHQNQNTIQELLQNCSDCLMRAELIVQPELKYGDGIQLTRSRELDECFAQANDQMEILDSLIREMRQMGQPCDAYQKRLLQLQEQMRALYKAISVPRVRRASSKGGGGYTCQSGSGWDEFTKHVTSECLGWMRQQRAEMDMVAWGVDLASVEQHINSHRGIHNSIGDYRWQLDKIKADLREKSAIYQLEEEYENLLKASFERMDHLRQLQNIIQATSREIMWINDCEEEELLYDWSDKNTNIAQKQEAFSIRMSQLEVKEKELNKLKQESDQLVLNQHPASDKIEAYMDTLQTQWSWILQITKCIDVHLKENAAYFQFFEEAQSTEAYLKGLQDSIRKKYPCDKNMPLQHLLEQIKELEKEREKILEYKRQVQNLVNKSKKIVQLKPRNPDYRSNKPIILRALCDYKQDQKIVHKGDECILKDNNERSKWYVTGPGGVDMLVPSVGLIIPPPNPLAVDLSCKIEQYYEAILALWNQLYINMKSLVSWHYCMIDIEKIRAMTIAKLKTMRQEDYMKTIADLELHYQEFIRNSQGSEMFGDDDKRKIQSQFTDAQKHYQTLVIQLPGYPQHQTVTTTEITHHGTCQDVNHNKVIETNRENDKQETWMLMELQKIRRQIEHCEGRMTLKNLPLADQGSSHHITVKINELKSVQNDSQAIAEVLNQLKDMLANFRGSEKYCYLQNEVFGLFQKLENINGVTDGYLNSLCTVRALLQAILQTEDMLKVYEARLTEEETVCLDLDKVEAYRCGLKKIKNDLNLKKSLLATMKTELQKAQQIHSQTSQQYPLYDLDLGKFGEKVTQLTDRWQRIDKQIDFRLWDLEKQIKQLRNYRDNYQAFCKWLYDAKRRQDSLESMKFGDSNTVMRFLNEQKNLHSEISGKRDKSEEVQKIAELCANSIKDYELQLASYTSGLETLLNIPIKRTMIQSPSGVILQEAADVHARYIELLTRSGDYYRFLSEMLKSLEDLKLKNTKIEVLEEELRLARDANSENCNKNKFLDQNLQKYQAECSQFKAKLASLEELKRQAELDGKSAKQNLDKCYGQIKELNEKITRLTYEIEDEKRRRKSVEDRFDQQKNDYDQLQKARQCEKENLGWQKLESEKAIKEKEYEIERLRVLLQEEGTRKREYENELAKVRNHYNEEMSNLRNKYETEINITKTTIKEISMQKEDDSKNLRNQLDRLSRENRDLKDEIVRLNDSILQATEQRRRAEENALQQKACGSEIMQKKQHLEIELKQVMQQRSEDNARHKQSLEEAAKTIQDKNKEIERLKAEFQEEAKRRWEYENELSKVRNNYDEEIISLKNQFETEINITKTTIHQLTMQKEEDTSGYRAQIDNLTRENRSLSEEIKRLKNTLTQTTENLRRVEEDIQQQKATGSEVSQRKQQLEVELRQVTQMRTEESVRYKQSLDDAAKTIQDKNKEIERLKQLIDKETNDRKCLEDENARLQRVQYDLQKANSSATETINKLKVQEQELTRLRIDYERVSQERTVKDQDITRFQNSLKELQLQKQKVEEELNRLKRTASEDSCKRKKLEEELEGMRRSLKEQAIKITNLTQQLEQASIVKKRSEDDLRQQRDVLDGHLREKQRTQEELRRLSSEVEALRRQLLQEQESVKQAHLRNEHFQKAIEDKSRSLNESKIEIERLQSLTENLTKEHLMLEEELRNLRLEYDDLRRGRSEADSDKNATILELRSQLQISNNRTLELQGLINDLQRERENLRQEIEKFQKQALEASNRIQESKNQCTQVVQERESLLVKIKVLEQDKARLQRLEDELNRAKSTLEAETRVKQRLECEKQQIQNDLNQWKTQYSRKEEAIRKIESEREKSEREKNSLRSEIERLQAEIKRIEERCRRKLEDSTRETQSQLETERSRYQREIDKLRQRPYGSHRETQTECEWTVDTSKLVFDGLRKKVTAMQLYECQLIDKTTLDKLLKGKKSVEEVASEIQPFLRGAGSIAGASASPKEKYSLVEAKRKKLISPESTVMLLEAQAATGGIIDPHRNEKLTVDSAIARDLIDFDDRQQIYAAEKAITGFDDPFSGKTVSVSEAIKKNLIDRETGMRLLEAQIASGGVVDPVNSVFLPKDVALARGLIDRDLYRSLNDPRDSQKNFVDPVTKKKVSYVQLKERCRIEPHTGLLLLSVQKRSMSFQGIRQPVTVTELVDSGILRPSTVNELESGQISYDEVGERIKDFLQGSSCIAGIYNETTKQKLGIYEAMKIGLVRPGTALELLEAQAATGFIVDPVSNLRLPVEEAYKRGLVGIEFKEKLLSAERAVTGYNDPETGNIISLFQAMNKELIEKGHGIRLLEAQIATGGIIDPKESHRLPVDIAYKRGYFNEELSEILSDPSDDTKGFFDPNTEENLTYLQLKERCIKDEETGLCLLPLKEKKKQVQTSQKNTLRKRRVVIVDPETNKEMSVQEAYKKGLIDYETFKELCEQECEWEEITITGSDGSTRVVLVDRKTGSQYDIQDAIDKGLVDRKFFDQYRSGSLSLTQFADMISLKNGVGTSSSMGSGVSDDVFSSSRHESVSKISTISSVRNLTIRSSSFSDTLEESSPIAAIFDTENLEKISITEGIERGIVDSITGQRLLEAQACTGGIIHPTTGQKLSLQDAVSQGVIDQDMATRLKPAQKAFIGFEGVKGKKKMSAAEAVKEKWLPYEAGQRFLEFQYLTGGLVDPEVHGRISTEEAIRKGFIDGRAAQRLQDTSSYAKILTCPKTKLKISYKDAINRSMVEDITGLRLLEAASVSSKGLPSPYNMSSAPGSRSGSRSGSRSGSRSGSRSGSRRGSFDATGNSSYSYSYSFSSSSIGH

Experiment [1] deals with T1, Keratin 13 (KRT13), endogenous in HCC1954 cells (human (endogenous in HCC1954)) (UniProt P13646).
T1 sequence: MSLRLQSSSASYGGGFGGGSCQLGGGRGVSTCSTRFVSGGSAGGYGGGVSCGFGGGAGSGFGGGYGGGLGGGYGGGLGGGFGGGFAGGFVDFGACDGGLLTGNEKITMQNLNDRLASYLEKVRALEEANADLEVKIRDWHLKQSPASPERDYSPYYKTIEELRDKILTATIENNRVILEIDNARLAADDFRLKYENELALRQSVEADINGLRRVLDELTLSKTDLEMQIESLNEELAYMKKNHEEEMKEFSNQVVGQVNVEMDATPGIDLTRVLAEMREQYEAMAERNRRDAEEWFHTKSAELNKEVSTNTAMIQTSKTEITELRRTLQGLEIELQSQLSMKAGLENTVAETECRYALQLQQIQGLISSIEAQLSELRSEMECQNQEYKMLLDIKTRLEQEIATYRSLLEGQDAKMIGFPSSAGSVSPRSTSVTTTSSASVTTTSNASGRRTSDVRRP

Experiment [2] has as its target T2, Keratin 13 (KRT13), overexpressed in MCF7 cells (MCF7-KRT13) (human) (UniProt P13646).
T2 sequence: T1 sequence

Experiment [3] addresses desmoplakin (DSP) (human (endogenous in MCF7 and HCC1954)) (UniProt P15924).
Experiment [4] deals with T3, plakoglobin (PG, γ-catenin) (human (endogenous in MCF7 and HCC1954)) (UniProt P14923).
T3 sequence: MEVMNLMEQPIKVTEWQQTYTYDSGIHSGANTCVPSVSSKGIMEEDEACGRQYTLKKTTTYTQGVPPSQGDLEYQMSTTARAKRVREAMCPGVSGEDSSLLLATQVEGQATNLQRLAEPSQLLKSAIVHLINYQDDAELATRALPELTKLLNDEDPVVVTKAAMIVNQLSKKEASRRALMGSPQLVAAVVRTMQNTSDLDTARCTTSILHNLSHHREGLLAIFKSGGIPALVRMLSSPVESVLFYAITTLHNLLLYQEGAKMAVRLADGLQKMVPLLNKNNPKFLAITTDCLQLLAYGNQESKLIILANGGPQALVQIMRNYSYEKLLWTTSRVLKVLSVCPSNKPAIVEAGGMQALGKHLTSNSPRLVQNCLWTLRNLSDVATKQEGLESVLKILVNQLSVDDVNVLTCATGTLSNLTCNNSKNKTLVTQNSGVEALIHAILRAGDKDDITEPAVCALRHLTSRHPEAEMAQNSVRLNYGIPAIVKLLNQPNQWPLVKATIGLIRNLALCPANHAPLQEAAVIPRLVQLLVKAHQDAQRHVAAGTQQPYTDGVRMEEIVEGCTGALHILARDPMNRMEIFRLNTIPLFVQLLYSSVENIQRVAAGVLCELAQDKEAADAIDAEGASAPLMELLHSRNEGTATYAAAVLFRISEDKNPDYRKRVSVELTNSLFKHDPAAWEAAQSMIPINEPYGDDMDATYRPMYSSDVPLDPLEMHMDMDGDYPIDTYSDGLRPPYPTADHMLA

Results are given in words; binding and its absence hold for the method and conditions named. Binding seen in cells or lysates may run through a third protein. Some results given as binding are weak or reduced against the parent protein; the word gives no strength.

B1: plakoglobin (PG, γ-catenin) (protein, UniProt P14923 1-745)
chain: T3 sequence
As to B1, the binding entry in experiment [1], in experiment [2] and in experiment [3] was “binds” each time.

B2: Keratin 13 (KRT13), endogenous in HCC1954 cells (protein, UniProt P13646 1-458)
chain: T1 sequence
Consider B2, for which the binding result in experiment [3] and in experiment [4] was “binds” each time.

B3: Keratin 13 (KRT13), overexpressed in MCF7 cells (MCF7-KRT13) (protein, UniProt P13646-1 1-458)
chain: T1 sequence
Take B3: the binding result in experiment [3] and in experiment [4] was “binds” throughout.

The values above are taken from paper PMC8788068.
